# Measurements as given in PubChem BioAssay AID445 (National Center for Advancing Translational Sciences (NCATS), 2006).
# Some of the results follow. The main result of the screen is listed elsewhere. These columns were measured beside it and carry no call. Compounds called inactive in the main read-out are mostly missing here. Potencies come from curve fits of mixed quality, noted in brackets.
# Test: IkB Signaling
# Details: ABC-DLBCL IkBa-CBG/CBR dual luciferase ratio (green luciferase fused to IkBa over red control in OCI-Ly3 lymphoma cells), 4 h
# Method in brief: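 Curves were fitted separately to fusion (green), unfused (red) and ratio luminescence, then classed by r2, magnitude and activity. Cells: OCI-Ly3, 4 h compound plus doxycycline at 37C; 10 uM MG-132 defined full response.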
# [1] = measured here: control luc red channel unless noted
compound,measurement,setting,value
Cc1ccc(CN2C(=O)C3(c4ccccc42)N(c2cccc(C(F)(F)F)c2)C(=O)CS3(=O)=O)cc1 (configuration not stated),AC50,[1],"7.94 µM [falling, partial curve]"
O=c1cc(CSc2n[nH]c(-c3ccccc3)n2)[nH]c2ccccc12,AC50,[1],"25.1 µM [falling, single point]"
COc1ccccc1NC(=O)CSc1oc(-c2cccs2)nc1S(=O)(=O)c1ccccc1,AC50,[1],"15.8 µM [falling, partial curve]"
Cc1nc2sc(C(c3ccco3)N3CCN(c4ccccc4)CC3)c(O)n2n1 (configuration not stated),AC50,[1],"3.16 µM [falling, full curve]"
O=C(CN1C(=O)COc2ccc(S(=O)(=O)N3CCOCC3)cc21)N1CCN(c2ccc(F)cc2)CC1,AC50,[1],"39.8 µM [falling, single point]"
Cc1ccccc1OCC(=O)Nc1ccc(N2CCN(C(=O)C(C)C)CC2)c(Cl)c1,AC50,measured here: IkB-luc green channel,"20 µM [falling, partial curve]"
same,AC50,measured here: control luc red channel,"20 µM [falling, partial curve]"
CCSC1(SCC)N=C(N)C2(C#N)C(c3ccc(OC)c(OC)c3OC)C12C#N (configuration not stated),AC50,[1],"10 µM [falling, partial curve]"
CC(Sc1nc(=O)cc(N)n1CCc1ccccc1)C(=O)Nc1ccccc1C#N (configuration not stated),AC50,[1],"20 µM [falling, partial curve]"
O=C(NC1CCCCC1)c1ccc2c(c1)N(Cc1ccc(Cl)cc1)C(=O)c1ccccc1S2(=O)=O,AC50,[1],"3.16 µM [falling, single point]"
CCc1nn(CC(=O)N2CCN(Cc3ccc4c(c3)OCO4)CC2)c(=O)c2cc3occc3n12,AC50,[1],"15.8 µM [falling, partial curve]"
CCOc1ccc(C(=O)Nc2cccc(OCc3cc(=O)n4cc(C)sc4n3)c2)cc1,AC50,[1],"0.398 µM [falling, full curve]"
CCCCOC(=O)c1cccc(NC(=O)c2cc3ccccc3o2)c1,AC50,[1],"10 µM [falling, partial curve]"
O=C(NCCc1ccccc1)c1ccc(CSc2nc3ccncc3n2Cc2ccc(F)cc2)cc1,AC50,[1],"12.6 µM [falling, partial curve]"
Cc1ccc(C)c(Cn2nc(-c3cc(C)ccc3C)ccc2=O)c1,AC50,[1],"25.1 µM [falling, single point]"
CCOC(=O)c1c(S(=O)(=O)N2CCCC(C(=O)N3CCN(c4ccccc4)CC3)C2)c(C)n(C)c1C (configuration not stated),AC50,[1],"6.31 µM [rising, single point]"
O=[N+]([O-])c1ccc(C(c2sc3nc(-c4ccco4)nn3c2O)N2CCN(c3cccc(Cl)c3)CC2)cc1 (configuration not stated),AC50,[1],"39.8 µM [falling, single point]"

# Some of the entries above in another layout.
compound	measurement	setting	value
Cc1ccccc1OCC(=O)Nc1ccc(N2CCN(C(=O)C(C)C)CC2)c(Cl)c1	AC50	measured here: control luc red channel	20 µM [falling, partial curve]
CCSC1(SCC)N=C(N)C2(C#N)C(c3ccc(OC)c(OC)c3OC)C12C#N (configuration not stated)	AC50	[1]	10 µM [falling, partial curve]
CC(Sc1nc(=O)cc(N)n1CCc1ccccc1)C(=O)Nc1ccccc1C#N (configuration not stated)	AC50	[1]	20 µM [falling, partial curve]
